Experimental data: PubChem BioAssay AID686938 (Drosophila RNAi Screening Center, 2013)
In all, the deposit lists about 23,000 reagents; below is an unselected part of those with a known target gene and a result. In the full data, 75 (0.33%) were called active. 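Raw plate signals without normalisation; calls rest on plate z-scores that were not deposited; ratio present for only 364 wells.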 Unmarked entries are inactive. Names joined by + are all predicted targets of the reagent. Not stated in the record: the dose of the treatment.

- Assay: 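Fly genes required for calcium entry once internal stores are emptied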 (primary screen)
- Cell system: Drosophila S2R+ cells
- Reagent: long dsRNA against Drosophila genes, about 0.25 µg dsRNA per well, roughly 10,000 cells
- Duration: 5 days of knock-down before the calcium assay
- Challenge: thapsigargin (SERCA pump blocker) to empty calcium stores; entry signal taken 4 min after adding it
- Measured: 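Duplicate raw fluo-4 intensities per well from a plate reader, at rest and four minutes after thapsigargin emptied calcium stores; entry-to-rest ratio filled for only some wells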
- Scale: calcium entry signal: higher = stronger calcium signal after store depletion; entry to resting ratio: higher = more calcium entry relative to resting level; resting calcium signal: higher = higher resting calcium signal
- Active means: 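Called when the plate z-score of the entry-to-rest ratio, mean of duplicates, falls below −3; wells with low overall dye signal (Fmax z below −2) or more than five off-targets excluded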
- Calls: active = strongly reduced calcium entry; inactive = no strong reduction

gene | DRSC id | calcium entry signal, replicate 1 (fluorescence units) | calcium entry signal, replicate 2 (fluorescence units) | entry to resting ratio | resting calcium signal, replicate 1 (fluorescence units) | resting calcium signal, replicate 2 (fluorescence units)
per | DRSC18818 | 3.35e7 | 5.00e7 | 2 | 1.63e7 | 2.02e7
CG43277 | DRSC05800 | 2.08e7 | 3.10e7 | – | 9.41e6 | 1.39e7
Cpr78Cb | DRSC11847 | 2.24e7 | 3.28e7 | – | 1.15e7 | 1.55e7
CG32554 | DRSC22713 | 3.16e7 | 2.86e7 | – | 1.81e7 | 1.30e7
CG18549 | DRSC15347 | 4.29e7 | 3.93e7 | – | 2.01e7 | 2.00e7
CG31313 | DRSC13044 | 2.07e7 | 2.83e7 | – | 1.07e7 | 1.36e7
CG14342 | DRSC00372 | 3.36e7 | 4.49e7 | – | 1.75e7 | 2.09e7
Ns4 | DRSC03199 | 2.50e7 | – | – | 1.38e7 | –
SmydA-9 | DRSC17814 | 3.18e7 | 5.46e7 | – | 1.68e7 | 2.41e7
yki | DRSC04437 | 3.44e7 | – | – | 1.76e7 | –
ATP7 | DRSC19819 | 2.99e7 | 3.94e7 | – | 1.52e7 | 1.87e7
Rh7 | DRSC10529 | 5.23e7 | 4.28e7 | – | 3.63e7 | 1.80e7
Osi17 | DRSC12284 | 2.87e7 | 2.13e7 | – | 1.21e7 | 1.00e7
CG4734 | DRSC06885 | 2.82e7 | 4.05e7 | – | 1.47e7 | 1.89e7
CG4734 | DRSC22072 | 3.03e7 | 6.71e7 | – | 1.50e7 | 3.48e7
mRpL49 | DRSC19908 | 4.18e7 | 4.98e7 | – | 1.93e7 | 2.25e7
mv | DRSC08208 | 2.61e7 | 2.73e7 | – | 1.30e7 | 1.30e7
mv | DRSC08570 | 2.45e7 | 2.54e7 | – | 1.30e7 | 1.24e7
CG34282 | DRSC16298 | 3.43e7 | 4.15e7 | – | 6.28e7 | 1.78e7
fz3 | DRSC18779 | 3.70e7 | 4.84e7 | 2 | 1.87e7 | 1.86e7
CG8260 | DRSC20098 | 3.30e7 | 3.46e7 | – | 1.75e7 | 1.61e7
mRpL16 | DRSC18550 | 2.64e7 | 4.00e7 | – | 1.13e7 | 1.75e7
CG14820 | DRSC10191 | 3.16e7 | 4.56e7 | – | 1.48e7 | 2.01e7
CG31601 | DRSC03678 | 2.83e7 | 5.59e7 | – | 1.48e7 | 2.22e7
Exo70 | DRSC10774 | 2.30e7 | 3.43e7 | – | 1.04e7 | 1.40e7
Cp19 | DRSC11121 | 3.17e7 | 4.41e7 | – | 1.53e7 | 2.13e7
CG13643 | DRSC14641 | 3.89e7 | 5.13e7 | – | 1.84e7 | 2.39e7
CG13643 | DRSC14642 | 4.15e7 | 5.32e7 | – | 1.86e7 | 2.26e7
Crk | DRSC17163 | 3.77e7 | 3.92e7 | – | 1.77e7 | 1.83e7
Klp61F | DRSC08671 | 1.87e7 | 1.64e7 | – | 1.34e7 | 1.24e7
CG7011 | DRSC09347 | 5.73e7 | 3.96e7 | – | 2.46e7 | 2.10e7
pncr004:X (retired record) | DRSC19295 | 3.07e7 | 3.74e7 | – | 1.54e7 | 1.58e7
Lint-O | DRSC18468 | 3.76e7 | 5.49e7 | 2.1 | 1.79e7 | 1.90e7
CG32669 | DRSC18864 | 5.01e7 | 3.39e7 | – | 2.16e7 | 1.55e7
PrBP | DRSC03189 | 3.27e7 | 4.41e7 | – | 1.58e7 | 1.69e7
CG9682 | DRSC16536 | 4.53e7 | 5.63e7 | – | 2.05e7 | 2.57e7
CG12481 | DRSC19461 | 2.77e7 | 3.59e7 | – | 1.49e7 | 1.47e7
KP78a + KP78b | DRSC16721 | 3.14e7 | 2.98e7 | – | 1.59e7 | 1.57e7
KP78a + KP78b | DRSC16722 | 3.51e7 | 3.05e7 | – | 1.77e7 | 1.60e7
lbe | DRSC16985 | 4.77e7 | 3.64e7 | – | 5.07e7 | 1.59e7
inaF-A | DRSC19660 | 3.17e7 | 4.62e7 | – | 1.66e7 | 1.93e7
CG43658 | DRSC19455 | 2.01e7 | 2.41e7 | – | 1.18e7 | 1.10e7
CG43658 | DRSC20111 | 2.08e7 | 2.21e7 | – | 1.17e7 | 1.01e7
CG33125 | DRSC00145 | 3.19e7 | 4.68e7 | – | 1.72e7 | 2.27e7
CG3223 | DRSC15468 | 5.16e7 | 4.39e7 | – | 2.57e7 | 2.09e7
Syx18 | DRSC14628 | 3.73e7 | 4.11e7 | – | 1.93e7 | 1.97e7
SCaMC | DRSC10293 | 4.53e7 | 4.25e7 | – | 3.19e7 | 1.79e7
SCaMC | DRSC10415 | 3.15e7 | 3.14e7 | – | 1.61e7 | 1.41e7
tweek | DRSC02433 | 3.66e7 | 2.29e7 | – | 1.65e7 | 1.18e7
tweek | DRSC02434 | 3.96e7 | 2.18e7 | – | 1.82e7 | 1.05e7
tweek | DRSC02785 | 4.32e7 | – | – | 2.28e7 | –
tweek | DRSC23133 | 2.84e7 | 2.81e7 | – | 1.40e7 | 1.41e7
Lac | DRSC07452 | 3.96e7 | 4.66e7 | – | 1.64e7 | 1.99e7
ana2 | DRSC05952 | 4.29e7 | 4.29e7 | – | 1.84e7 | 2.37e7
CG30076 | DRSC05494 | 5.19e7 | 3.93e7 | – | 3.26e7 | 1.67e7
CG32313 | DRSC21450 | 3.75e7 | 3.47e7 | – | 2.21e7 | 1.59e7
CG15602 | DRSC19671 | 3.14e7 | 3.25e7 | – | 1.60e7 | 1.49e7
Sodq | DRSC15924 | 3.58e7 | 5.47e7 | – | 1.90e7 | 2.55e7

3 entries from above, reformatted.
| gene | DRSC id | calcium entry signal, replicate 1 (fluorescence units) | calcium entry signal, replicate 2 (fluorescence units) | entry to resting ratio | resting calcium signal, replicate 1 (fluorescence units) | resting calcium signal, replicate 2 (fluorescence units) |
| --- | --- | --- | --- | --- | --- | --- |
| Osi17 | DRSC12284 | 2.87e7 | 2.13e7 | – | 1.21e7 | 1.00e7 |
| CG4734 | DRSC06885 | 2.82e7 | 4.05e7 | – | 1.47e7 | 1.89e7 |
| CG4734 | DRSC22072 | 3.03e7 | 6.71e7 | – | 1.50e7 | 3.48e7 |
